# According to PubChem BioAssay AID587 (National Center for Advancing Translational Sciences (NCATS), 2007):
# Out of some 59,000 compounds screened, about 35 (0.06%) were called active. The inconclusive results got no clear call from the source; some entries with a clear call stand among them for comparison. No stated cut-off is given here; in the data, active means max dye-equivalent concentration above about 10 nM; inconclusive means between about 1.1 nM and that limit; inactive means weaker than that.
# Test: qHTS Assay for Spectroscopic Profiling in Texas Red Spectral Region
# Settings: Compound fluorescence, Texas Red channel, 547/618 nm; stronger effect = higher value
# Method in brief: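 Compound titrations in 100 mM Tris pH 8.0 were incubated 15 min at room temperature and read at 547 nm excitation / 618 nm emission. Texas Red six-point standard curve on each plate converted fluorescence to dye-equivalent concentration.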
row,Compound,max dye-equivalent concentration
1,COc1ccc2[nH]c(=O)c(C(c3nnnn3C3CCCC3)N(C)C3CCCCC3)cc2c1 (centres undefined),inconclusive: 1.9 nM
2,O=C(NC1CCCCC1)C(c1ccco1)N(Cc1cccs1)C(=O)Cn1nnc2ccccc21 (centres undefined),inconclusive: 1.4 nM
3,CCCCCn1c(S(=O)(=O)O)nc2ccccc21,inconclusive: 1.6 nM
4,O=C1CC(c2ccccc2)Cc2nc(NCc3ccco3)ncc21 (centres undefined),inconclusive: 1.2 nM
5,Cc1cc(S(=O)(=O)N(Cc2ccccn2)Cc2ccco2)ccc1-n1cnnn1,inconclusive: 1.4 nM
6,CNC(=O)[C@@H]1O[C@@H](n2cnc3c(N)ncnc32)[C@@H](O)[C@H]1O,inconclusive: 1.1 nM
7,CCOC(=O)c1cc(C)n(-c2c(C)n(C)n(-c3ccccc3)c2=O)c1C,inconclusive: 1.1 nM
8,O=S(=O)(NCc1ccccc1)c1cccc2nonc12,inconclusive: 2.1 nM
9,CCOC(=O)Cc1csc(NC(=O)c2ccc(C)o2)n1,inconclusive: 2 nM
10,COc1ccc(CNC(=O)CN(C(=O)c2ccc(CN3CCOCC3)o2)C2CCCC2)cc1,inconclusive: 1.5 nM
11,CCn1cnc2sc(C(=O)O)c(C)c2c1=O,inconclusive: 1.3 nM
12,C[C@@]12CC(=O)[C@@H]3[C@@H](CCC4=CC(=O)CC[C@]43C)[C@@H]1CC=C2CC(=O)O,inactive
13,COCC(=O)O[C@]1(CCN(C)CCCc2nc3ccccc3[nH]2)CCc2cc(F)ccc2[C@@H]1C(C)C,inconclusive: 1.2 nM
14,O=C(COc1ccccc1)N1CCN(S(=O)(=O)Cc2ccccc2)CC1,inconclusive: 1.2 nM
15,Fc1cnc(N2CCOCC2)nc1NCc1ccccc1,inactive
16,CCn1c(COc2ccccc2)nnc1SCc1ccc(C#N)cc1,inconclusive: 1.5 nM
17,C#CC1(O)CC(C)N(C)C(C)C1 (centres undefined),inconclusive: 1.2 nM
18,COCCNC(=O)c1ccccc1-c1nc(-c2ccccc2Cl)no1,inconclusive: 1.4 nM
19,CCOC(=O)c1oc2ccccc2c1NC(=O)c1cccc(OC)c1,inconclusive: 1.2 nM
20,COc1cccc(-c2nc(NCCN3CCOCC3)c3ccccc3n2)c1,inactive
21,Cc1cc(NC(=O)c2cccc(F)c2)ncc1NC(=O)c1ccco1,inconclusive: 1.4 nM
22,Cn1c(=O)c(=O)n(C)c2cc(S(=O)(=O)N3CCN(Cc4ccccc4)CC3)ccc21,inconclusive: 1.4 nM
23,OC[C@@H]1NC[C@@H](O)[C@H]1O,inactive
24,CCn1c(SCC(=O)c2ccccc2)nnc1-c1cnccn1,inconclusive: 1.3 nM

# Two entries from above, with bars between the fields:
row | Compound | max dye-equivalent concentration
14 | O=C(COc1ccccc1)N1CCN(S(=O)(=O)Cc2ccccc2)CC1 | inconclusive: 1.2 nM
15 | Fc1cnc(N2CCOCC2)nc1NCc1ccccc1 | inactive
